Results published in PubChem BioAssay AID1671190 (National Center for Advancing Translational Sciences (NCATS), 2021).
Screen size: about 580,000 compounds; about 6,100 (1.1%) were called active. Inconclusive results, whose numbers are uncertain, are shown with a selection of clear calls. Calls come from the whole dose curve; as a rule, active = well fitted inhibition curve with a large enough effect; inconclusive = small, poorly fitted or top-dose-only effect, or another doubt; inactive = no such curve, though single readings can be large or run the other way. A potency beside an inconclusive call is a rough fit, not a confirmed value.

Protein sequences, listed by entry. Tags and fused reporters are not part of them. Lines headed by an entry give the natural chain unless they say otherwise; changes in a name come on top.
UniProt P18054: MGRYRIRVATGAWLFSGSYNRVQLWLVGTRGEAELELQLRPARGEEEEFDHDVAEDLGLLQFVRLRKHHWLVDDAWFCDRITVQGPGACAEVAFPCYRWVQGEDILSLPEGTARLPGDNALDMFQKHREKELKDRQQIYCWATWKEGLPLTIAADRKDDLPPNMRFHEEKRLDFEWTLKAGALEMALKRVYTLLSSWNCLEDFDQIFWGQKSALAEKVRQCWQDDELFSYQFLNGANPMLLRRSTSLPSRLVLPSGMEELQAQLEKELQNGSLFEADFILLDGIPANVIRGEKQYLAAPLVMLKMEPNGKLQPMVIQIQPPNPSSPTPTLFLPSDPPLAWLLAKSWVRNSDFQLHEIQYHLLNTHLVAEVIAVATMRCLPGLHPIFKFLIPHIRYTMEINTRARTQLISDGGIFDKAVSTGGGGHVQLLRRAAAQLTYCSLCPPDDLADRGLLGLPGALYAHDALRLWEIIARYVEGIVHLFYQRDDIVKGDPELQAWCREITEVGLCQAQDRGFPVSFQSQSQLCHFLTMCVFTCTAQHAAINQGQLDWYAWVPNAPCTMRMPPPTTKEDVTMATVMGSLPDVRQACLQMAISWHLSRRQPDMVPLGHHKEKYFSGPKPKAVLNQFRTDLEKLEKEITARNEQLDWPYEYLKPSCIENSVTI

Target: Polyunsaturated fatty acid lipoxygenase ALOX12 (Homo sapiens) (UniProt P18054)
Assay: Primary qHTS assay for inhibitors of human arachidonate 12S-lipoxygenase (ALOX12): Round 2
Details: purified 12hLO, xylenol orange hydroperoxide absorbance; series mostly up to 108 µM
In short: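 Hydroperoxide product was detected by ferrous iron/xylenol orange as the 573 to 405 nm absorbance ratio. Arachidonic acid at 40 uM (final) was turned over for 30 min at room temperature by 150 nM human 12hLO, pH 7.0 Hepes buffer, after 15 min compound preincubation.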
Potency is the fitted concentration of half-maximal effect.

| SMILES | Potency |
| --- | --- |
| COc1cc(NS(=O)(=O)c2cccc(Cl)c2C)cc2sc(NC(C)=O)nc12 | inconclusive: 70.8 µM [inhibitor, single point] |
| S=C(N/N=C1/CC2CC=CC12)NC1CCCCC1 (configuration not stated) | active: 35.5 µM |
| CCOC(=O)c1ccc[n+](CC(=O)c2ccc(NC(=O)c3ccccc3)cc2)c1 | inconclusive: 35.5 µM [inhibitor, partial curve] |
| CN(C)C(=O)c1ccc(Cl)cc1 | inactive |
| NNC(=O)c1oc2nc(-c3cccs3)cc(-c3ccco3)c2c1N | inactive |
| COc1ccc(Nc2cc(C)c3ccc(O)cc3n2)cc1 | inconclusive: 44.7 µM [inhibitor, partial curve, poor fit] |
| CCOc1ccc2nc(N3CCCC(C(=O)NCCCOC)C3)sc2c1 (configuration not stated) | inactive |
| CC(C)(C)C1CCC(OCC(O)CN(CCO)CCO)CC1 (configuration not stated) | inactive |
| COc1ccc(S(=O)(=O)N2CCOC23CCN(C(=O)c2ccccc2Br)CC3)cc1 | inactive |
| Nc1ccc(OCC2CC2)c(F)c1 | inconclusive: 5.62 µM [inhibitor, full curve, poor fit] |
| Cc1ccc(N(C(=O)c2nsc(Cl)c2Cl)C(C(=O)NC2CCCC2)c2ccc(O)cc2)cc1C (configuration not stated) | inactive |
| CC1=C(C(=O)OCCBr)C(c2cccc3ccccc23)NC(=O)N1 (configuration not stated) | inconclusive: 44.7 µM [inhibitor, partial curve, poor fit] |
| O=C1C(Cl)=C(NCCc2ccccc2)C(=O)c2ccccc21 | active: 3.98 µM |
| CN1CCN(c2ncncc2-c2ccc(C(=O)N(C)C)cc2)CC1 | inconclusive: 100 µM [inhibitor, partial curve, poor fit] |
| COc1cccc(CC(=O)Nc2ccccc2-c2ccccc2)c1 | inconclusive: 141 µM [inhibitor, single point] |
| CC(C(=O)Nc1ccccc1)n1nc(-c2ccccc2)c2c(c1=O)CCCC2 (configuration not stated) | inactive |
| Cc1[nH]n(C)c(=O)c1[N+](=O)[O-] | inconclusive: 35.5 µM [inhibitor, partial curve, poor fit] |
| COc1cc(NC(=S)NCCc2c[nH]c3ccccc23)c(OC)cc1Cl | inconclusive: 50.1 µM [inhibitor, partial curve, poor fit] |
| N=C1/C(=C\c2ccc(OC(=O)c3ccc(F)cc3)cc2)C(=O)N=C2SC(N3CCCC3)=NN12 | inactive |
| CC(=O)NC(CC(=O)Nc1nccs1)c1ccccc1 (configuration not stated) | inconclusive: 4.47 µM [inhibitor, full curve, poor fit] |
| Cc1cc(N/N=C/c2ccccc2O)c2ccccc2n1 | inconclusive: 79.4 µM [inhibitor, partial curve, poor fit] |
| CC1(C)OC1COc1c2ccoc2cc2oc(=O)ccc12 (configuration not stated) | inactive |
| Cn1cccc1CN1CC(F)(F)C[C@H]1c1nnc(C2CC2)o1 | inactive |
| COC(=O)c1ccc(NC(=O)c2ccccc2N(C)S(=O)(=O)c2ccccc2)cc1 | inactive |

| SMILES | Potency |
| --- | --- |
| CCc1cccc(C)c1NC(=S)NCc1cccn1C | inconclusive: 44.7 µM [inhibitor, partial curve, poor fit] |
| Cn1nc(C(=O)OCC(=O)NCc2ccccc2)c2ccccc2c1=O | inactive |
| O=C1ON=C(c2ccccc2)/C1=C/c1ccccc1 | active: 6.31 µM |
| CCN(CC)CCN(CC(C)C)C(=O)c1sccc1C | inconclusive: 56.2 µM [inhibitor, partial curve, poor fit] |
| COc1cccc(C(=O)c2cn(CC(=O)Nc3cccc(C(F)(F)F)c3)c3nc(C)ccc3c2=O)c1 | inconclusive: 112 µM [inhibitor, partial curve, poor fit] |
| O=C(Oc1ccc(Cl)c2cccnc12)c1ccco1 | inactive |
| CCN(Cc1ccc(C(=O)Nc2cccc(C(=O)NC3CC3)c2)cc1)C(C)C | inconclusive: 56.2 µM [inhibitor, partial curve, poor fit] |
| CCC(C)(C)C1CCc2c(sc(NC(=O)C3CC4CCC3C4)c2C#N)C1 (configuration not stated) | inconclusive: 3.98 µM [inhibitor, single point] |
| O=C(c1ccc(Cn2cc(Cl)cn2)cc1)N1CCN(Cc2cccc(C(F)(F)F)c2)CC1 | inconclusive: 70.8 µM [inhibitor, partial curve, poor fit] |
| Cc1ccc(Cn2c(NCCc3ccc(F)cc3)nc3c2c(=O)n(C)c(=O)n3C)cc1 | inconclusive: 100 µM [inhibitor, single point] |
| Cc1ccc(NS(=O)(=O)c2ccccc2)c(=O)n1CC(=O)NCc1cccc(Cl)c1 | inconclusive: 3.16 µM [inhibitor, full curve, poor fit] |
| CC(=O)[C@@H]1[C@@H]2C(=O)N(c3ccccc3F)C(=O)[C@@H]2[C@H]2c3ccccc3C=NN12 | inconclusive: 39.8 µM [inhibitor, partial curve, poor fit] |
| Cc1onc(-c2c(Cl)cccc2Cl)c1C(=O)N/N=C(\N)COc1ccc(Cl)cc1 | inconclusive: 14.1 µM [inhibitor, full curve, poor fit] |
| CCOCCc1nnc(NC(=O)c2cc(OC)c(OC)c(OC)c2)s1 | inconclusive: 100 µM [inhibitor, single point] |
| O=C(COc1c(F)c(F)c(F)c(F)c1F)N1CCC(c2nc3ccccc3o2)CC1 | inactive |
| CCOc1ccc(C(=O)CCC(=O)NC2=NCCS2)cc1 | inconclusive: 56.2 µM [inhibitor, partial curve, poor fit] |
| COc1ccc(CC(=O)N2[C@@H]3CC[C@H]2CC(NC(=O)c2ccncc2)C3)cc1Cl (some centres not stated) | inactive |
| CC(C(=O)NCc1ccccc1)n1nc(-c2ccccc2)c2ccccc21 (configuration not stated) | inconclusive: 70.8 µM [inhibitor, partial curve, poor fit] |
| CCOC(=O)c1ccccc1N/C=C1\CCCC1=O | inconclusive: 178 µM [inhibitor, partial curve, poor fit] |
| Cn1c(=O)n(CC(=O)N2CCCCCC2)c(=O)c2cc(S(=O)(=O)N3CCCCC3)ccc21 | inactive |
| Cc1ccc(NS(=O)(=O)c2cc([N+](=O)[O-])ccc2NN)c(C)c1 | active: 39.8 µM |
| O=C(OCC(=O)N1CCC(Cc2ccccc2)CC1)c1cncc(Br)c1 | inconclusive: 8.91 µM [inhibitor, full curve, poor fit] |
| Cc1ccc(S(=O)(=O)N(C)c2ccc(C(=O)Nc3cccc(C)n3)cc2)cc1 | inactive |
| Cc1cccc(C)c1NC(=O)Nc1nc(C(N)c2ccccc2Cl)cs1 (configuration not stated) | inactive |

| SMILES | Potency |
| --- | --- |
| CC(C)c1ccc(NC(=O)N[C@H]2CC[C@@]34CCCN3C(=O)CCC[C@H]4[C@H]2C)cc1 | inconclusive: 70.8 µM [inhibitor, partial curve, poor fit] |
| COc1cccc2c(N/N=C/c3ccc(O)c(O)c3)cc(C)nc12 | active: 20 µM |
| Cc1cc2ncn(C(=O)N3CCOCC3)c2cc1C | inconclusive: 2 µM [inhibitor, single point] |
| Cc1ccccc1CNC[C@H]1O[C@@H]2C[C@@H](CC(=O)NCc3nccn3C)O[C@@H]2[C@@H]1O | inactive |
| CCCCNC(=O)C1CCN(Cc2ccccn2)CC1 | inactive |
| CC(=O)c1ccc(-c2ccc3c4c(ccc3c2)OC(CNC(=O)[C@@H]2CCCN2C(C)=O)C4)s1 (some centres not stated) | inactive |
| COc1ccc(S(=O)(=O)Nc2ccc3c(c2)OCO3)cc1C | inactive |
| CCc1ccccc1NC(=O)C1CCN(C(=O)N2CCOc3ccccc32)CC1 | inactive |
| Cc1ccc(S(=O)(=O)N2CCCN(C(C(=O)NC3CC3)c3ccccc3)CC2)cc1 (configuration not stated) | inconclusive: 141 µM [inhibitor, single point] |
| COc1cc(Cl)c(C)cc1NC(=O)c1ccc2c(c1)OCO2 | inactive |
| COc1ccc(C(=O)/C=C/c2ccccc2F)cc1CSCC(=O)O | inconclusive: 44.7 µM [inhibitor, partial curve, poor fit] |
| N#Cc1nc(COc2ccccc2Cl)oc1NCc1ccc(F)cc1 | inactive |
| O=C(N[C@H]1CC[C@H](CC(=O)N2CCCCC2)O[C@@H]1CO)c1cccc(F)c1 | inconclusive: 112 µM [inhibitor, single point] |
| CCN1CCc2nc3sc(C(=O)c4ccccc4)c(N)c3cc2C1 | inconclusive: 0.251 µM [inhibitor, full curve, poor fit] |
| CN(C)c1ccc(NC(=O)CN2C(=O)CC(c3ccccc3)=Nc3ccccc32)cc1 | inconclusive: 44.7 µM [inhibitor, partial curve, poor fit] |
| CC(OCC(O)CNCC1COc2ccccc2O1)c1ccc(Cl)cc1 (configuration not stated) | inconclusive: 2.24 µM [inhibitor, full curve, poor fit] |
| Cc1oc(-c2ccccc2)nc1C(=O)O | inconclusive: 56.2 µM [inhibitor, partial curve, poor fit] |
| O=C(NCc1ccc2nonc2c1)C1NCCc2[nH]cnc21 (configuration not stated) | inconclusive: 7.08 µM [inhibitor, partial curve, poor fit] |
| S=C1NCCc2ccccc2C1c1ccccc1 (configuration not stated) | active: 35.5 µM |
| COC(=O)C(C)Oc1cc(Br)c(C=O)cc1OC (configuration not stated) | inconclusive: 11.2 µM [inhibitor, full curve, poor fit] |
| Cc1oc(-c2ccccc2)cc1C(=O)Nc1ccc(N(C)C)cc1 | inconclusive: 3.98 µM [inhibitor, full curve, poor fit] |
| Cc1ccccc1CNC(=O)c1nn(C)c(=O)c2ccccc12 | inactive |
| Cc1cccc(-c2cccc(N)c2)c1 | inconclusive: 12.6 µM [inhibitor, partial curve, poor fit] |
| COc1ccc(S(=O)(=O)Nc2nc3ccccc3nc2Nc2cccc(Br)c2)cc1 | inconclusive: 79.4 µM [inhibitor, partial curve, poor fit] |

Nothing new here: an excerpt of the list.

| SMILES | Potency |
| --- | --- |
| COc1cc(Cl)c(C)cc1NC(=O)c1ccc2c(c1)OCO2 | inactive |
| COc1ccc(C(=O)/C=C/c2ccccc2F)cc1CSCC(=O)O | inconclusive: 44.7 µM [inhibitor, partial curve, poor fit] |
| N#Cc1nc(COc2ccccc2Cl)oc1NCc1ccc(F)cc1 | inactive |
| O=C(N[C@H]1CC[C@H](CC(=O)N2CCCCC2)O[C@@H]1CO)c1cccc(F)c1 | inconclusive: 112 µM [inhibitor, single point] |
